Test results as given in patent publication US9249157B2, “Tricyclic heterocycle compounds” (BRISTOL-MYERS SQUIBB COMPANY, priority 2012, dated 2016).
Some results were stated once for a whole list of compounds, not compound by compound.

How the values were obtained:
[1] = test system: human Notch 3; assay: Notch-CBF1 Transactivation Assay (Notch 3); format: cell-based; settings: HeLa cells transfected with truncated Notch 3 and CBF1 luciferase reporter; 18 hours incubation
Source text: (§1) Notch-CBF1 Transactivation Assay
(§2) The Notch-CBF1 (C-promoter binding factor I) cell based transactivation assay is based on the ability of the released Notch intracellular domain fragments (NICDs) to function as transcription factors in conjunction with CBF1 and other nuclear factors. Luciferase assays were used to measure the antagonism of Notch-CBF1 transcriptional activity. HeLa cervical cancer cells are transiently co-transfected with pCDNA3.1/Hygro plasmids containing truncated Notch 1, Notch 2, Notch 3, or Notch 4 receptors and a PGL3 luciferase reporter vector containing 4 copies of CBF1 binding site. The cells were then tested for Notch-CBF1 activity in the absence or presence of test compounds. HeLa cells, maintained in DMEM (high glucose with HEPES), 1× glutamine/penicillin/streptomycin and 10% Fetal Bovine serum, were transiently transfected in a T175 Flask (4.5×10^6 cells/flask) using the Monster Transfection Kit (Minis #MIR2906) according to manufacturers specifications. Table 1 denotes respective DNA quantity for the transfections.
(§3) Six hours post-transfection, cells were trypsinized and plated into a 384-well black Poly-D-lysine coated tissue culture plate at a density of 5×10^3 cells/well in 95 μL assay media (DMEM (high glucose with HEPES), 1× glutamine/penicillin/streptomycin, 0.0125% BSA, 1× non-essential amino acids). Assay media (5 μL) containing test compounds in final concentrations ranging from 5 μM to 8.4×10^−5 μM (3 fold serial dilutions) were added to the cells and the cell plates were then incubated for 18 hours at 37° C. and 5% CO2. Control wells contained DMSO vehicle (total counts) or 0.5 μM of an in-house small molecule inhibitor (background counts). Duplicates were used for each sample. Luciferase activity was measured after a 20-minute incubation with 50 μl STEADY-GLO® luciferase reagents according to manufacturer's specifications (Promega, Cat. #E2550) and analyzed by Envision plate reader (PerkinElmer, Boston, Mass.).
(§4) The antagonist effect of compounds was expressed as 100×[1−(average sample−average background)/(average total−average background)] where sample is the luciferase activity in the presence of test compound, background is equal to the luciferase activity in the presence of the small molecule inhibitor control and the total is signal induced in DMSO wells.

[2] = test system: human Notch 1; assay: Notch-CBF1 Transactivation Assay (Notch 1); format: cell-based; settings: HeLa cells transfected with truncated Notch 1 and CBF1 luciferase reporter; 18 hours incubation
Source text: as §1, §2, §3, §4

Compound | IC50 [1] [nM] | IC50 [2] [nM]
NC(=O)[C@@H](CC1CC1)[C@@H](CCC(F)(F)F)C(=O)N[C@H]1N=C(c2ccccc2)c2cccc3c2N(CCO3)C1=O [Example 6, (2R,3S)-3-(Cyclopropylmethyl)-N-((6S)-5-oxo-8-phenyl-2,3,5,6-tetrahydro[1,4]oxazino[2,3,4-jk][1,4]benzodiazepin-6-yl)-2-(3,3,3-trifluoropropyl)succinamide] | ≤ 28.3 | 
Cc1cccc(C2=N[C@H](NC(=O)[C@H](CCC(F)(F)F)[C@@H](C(N)=O)c3ccccc3)C(=O)N3CCOc4cccc2c43)c1 [Example 13, (2R,3R)—N-((6S)-8-(3-Methylphenyl)-5-oxo-2,3,5,6-tetrahydro[1,4]oxazino[2,3,4-jk][1,4]benzodiazepin-6-yl)-3-phenyl-2-(3,3,3-trifluoropropyl)succinamide] |  | ≤ 21.9
CCC[C@H](C(N)=O)[C@@H](CCC(F)(F)F)C(=O)N[C@H]1N=C(c2cccc(Cl)c2)c2cccc3c2N(CCO3)C1=O [Example 15, (2R,3S)—N-((6S)-8-(3-Chlorophenyl)-5-oxo-2,3,5,6-tetrahydro[1,4]oxazino[2,3,4-jk][1,4]benzodiazepin-6-yl)-3-propyl-2-(3,3,3-trifluoropropyl)succinamide] | ≤ 28.3 | ≤ 21.9
CCC[C@H](C(N)=O)[C@@H](CCC(F)(F)F)C(=O)N[C@H]1N=C(c2ccccc2)c2cccc3c2N(CCO3)C1=O [Example 7, (2R,3S)—N-((6S)-5-Oxo-8-phenyl-2,3,5,6-tetrahydro[1,4]oxazino[2,3,4-jk][1,4]benzodiazepin-6-yl)-3-propyl-2-(3,3,3-trifluoropropyl)succinamide] | ≤ 28.3 | 
CCC[C@H](C(N)=O)[C@@H](CCC(F)(F)F)C(=O)N[C@H]1N=C(c2ccccc2)c2cccc3c2N(CCN3)C1=O [Example 25, (2R,3S)—N-((6S)-5-Oxo-8-phenyl-2,3,5,6-tetrahydro-1H-[1,4]diazepino[1,7,6-de]quinoxalin-6-yl)-3-propyl-2-(3,3,3-trifluoropropyl)succinamide] | ≤ 28.3 | ≤ 21.9
NC(=O)[C@@H](CC1CC1)[C@@H](CCC(F)(F)F)C(=O)N[C@H]1N=C(c2ccccc2)c2cccc3c2N(CCCO3)C1=O [Example 23, (2R,3S)-3-(Cyclopropylmethyl)-N-((7S)-6-oxo-9-phenyl-3,4,6,7-tetrahydro-2H-[1,4]diazepino[1,7,6-ef][1,5]benzoxazepin-7-yl)-2-(3,3,3-trifluoropropyl)succinamide] | ≤ 28.3 | 
Cc1cccc(C2=N[C@H](NC(=O)[C@H](CCC(F)(F)F)[C@H](CCC(F)(F)F)C(N)=O)C(=O)N3CCOc4cccc2c43)c1 [Example 11, (2R,3S)—N-((6S)-8-(3-Methylphenyl)-5-oxo-2,3,5,6-tetrahydro[1,4]oxazino[2,3,4-jk][1,4]benzodiazepin-6-yl)-2,3-bis(3,3,3-trifluoropropyl)succinamide] | ≤ 28.3 | 
CCC[C@@H](C(=O)N[C@H]1N=C(c2ccccc2)c2cccc3c2N(CCO3)C1=O)[C@H](CCC(F)(F)F)C(N)=O [Example 17, (2R,3S)—N-((6S)-5-Oxo-8-phenyl-2,3,5,6-tetrahydro[1,4]oxazino[2,3,4-jk][1,4]benzodiazepin-6-yl)-2-propyl-3-(3,3,3-trifluoropropyl)succinamide] | ≤ 28.3 | ≤ 21.9
NC(=O)[C@@H](CC1CC1)[C@@H](CC1CC1)C(=O)N[C@H]1N=C(c2ccccc2)c2cccc3c2N(CCO3)C1=O [Example 18, (2R,3S)-2,3-Bis(cyclopropylmethyl)-N-((6S)-5-oxo-8-phenyl-2,3,5,6-tetrahydro[1,4]oxazino[2,3,4-jk][1,4]benzodiazepin-6-yl)succinamide] | ≤ 28.3 | ≤ 21.9
Cc1nocc1[C@H](C(N)=O)[C@@H](CCC(F)(F)F)C(=O)N[C@H]1N=C(c2ccccc2)c2cccc3c2N(CCN3)C1=O [Example 24, (2R,3R)-3-(3-Methyl-4-isoxazolyl)-N-((6S)-5-oxo-8-phenyl-2,3,5,6-tetrahydro-1H-[1,4]diazepino[1,7,6-de]quinoxalin-6-yl)-2-(3,3,3-trifluoropropyl)succinamide] | ≤ 28.3 | ≤ 21.9
NC(=O)[C@@H](c1ccccc1)[C@@H](CCC(F)(F)F)C(=O)N[C@H]1N=C(c2ccccc2)c2cccc3c2N(CCN3)C1=O [Example 27, (2R,3R)—N-((6S)-5-Oxo-8-phenyl-2,3,5,6-tetrahydro-1H-[1,4]diazepino[1,7,6-de]quinoxalin-6-yl)-3-phenyl-2-(3,3,3-trifluoropropyl)succinamide] |  | ≤ 21.9
NC(=O)[C@@H](CCCF)[C@@H](CCC(F)(F)F)C(=O)N[C@H]1N=C(c2ccccc2)c2cccc3c2N(CCO3)C1=O [Example 8, (2R,3S)-3-(3-Fluoropropyl)-N-((6S)-5-oxo-8-phenyl-2,3,5,6-tetrahydro[1,4]oxazino[2,3,4-jk][1,4]benzodiazepin-6-yl)-2-(3,3,3-trifluoropropyl)succinamide] | ≤ 28.3 | ≤ 21.9
